{
  "sequences": {"note": "Sequences of proteins named here, by UniProt entry; tags and fusion partners are left off. A change or cut given only in a name is not applied to a line headed by its entry.", "UniProt P43351": "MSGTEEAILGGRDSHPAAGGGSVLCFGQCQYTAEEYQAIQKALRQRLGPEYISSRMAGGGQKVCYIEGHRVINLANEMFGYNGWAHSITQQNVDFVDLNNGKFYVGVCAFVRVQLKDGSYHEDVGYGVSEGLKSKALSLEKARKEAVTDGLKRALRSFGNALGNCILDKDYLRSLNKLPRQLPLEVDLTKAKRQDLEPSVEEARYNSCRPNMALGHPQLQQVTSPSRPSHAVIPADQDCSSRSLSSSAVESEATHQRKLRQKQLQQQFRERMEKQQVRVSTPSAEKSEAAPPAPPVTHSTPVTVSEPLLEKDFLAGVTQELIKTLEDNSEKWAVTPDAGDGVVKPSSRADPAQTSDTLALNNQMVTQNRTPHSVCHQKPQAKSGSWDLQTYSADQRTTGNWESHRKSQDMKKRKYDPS"},
  "source": "PubChem BioAssay AID651660",
  "about": "(Broad Institute, 2012)",
  "note": "Several values for one entry are separate records, joined by “and”; a condition that tells them apart may be missing. Equal entries are not always repeated. Out of some 1,900 compounds screened, about 15 (0.8%) were called active.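 The calls were made as follows: active = every replicate shows at least 50% inhibition; inconclusive = mean inhibition at least 50% but some replicate below; inactive = the rest.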 This is one part of the list.",
  "data": [
    {"biological_target": "DNA repair protein RAD52 homolog (Homo sapiens) (UniProt P43351)", "test": "inhibition of RAD52-mediated strand annealing – biochemical, FRET, single point, primary screen (AID 651660);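 also: 0% = median of neutral control wells and 100% = median of positive control wells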", "details": "Recombinant RAD52 ssDNA annealing, FRET fluorescence, 30 min; at 18.7 µM; active compounds read high", "values": [
      {"smiles": "Nc1ccn([C@@H]2O[C@H](CO)[C@@H](O)[C@@H]2O)c(=O)n1", "inhibition": "inactive: -3.65%"},
      {"smiles": "COc1cc2c(cc1OC)-c1cc(NC3CCCCCC3)nc(=O)n1CC2", "inhibition": "inactive: 5.06%"},
      {"smiles": "NC(N)=N/N=C/c1cccc(Cl)c1Cl", "inhibition": "inactive: 18.4%"},
      {"smiles": "COc1ccc(NC(=O)CC2C(=O)N(C)C(=S)N2Cc2ccncc2)cc1", "note": "(stereo unspecified)", "inhibition": "inactive: -3.48%"},
      {"smiles": "COc1ccc(CC(=O)c2c(O)cc(O)cc2O)cc1OC", "inhibition": "inactive: -0.069%"},
      {"smiles": "COc1ccc(CCN=CC2=C(O)CC(C)(C)CC2=O)cc1", "inhibition": "inactive: -6.68%"},
      {"smiles": "C=CCNC(=O)c1ccc(-c2cccc([N+](=O)[O-])c2)o1", "inhibition": "inactive: -3.04%"},
      {"smiles": "CC(C)CCC1(CCNC(C)c2cccs2)CCOC(C)(C)C1", "note": "(stereo unspecified)", "inhibition": "inactive: 12.3%"},
      {"smiles": "C[C@@H]1C[C@H]2[C@@H]3C[C@H](F)C4=CC(=O)C=C[C@]4(C)[C@@]3(F)[C@@H](O)C[C@]2(C)[C@@]1(O)C(=O)COC(=O)C(C)(C)C", "inhibition": "inactive: -1.88%"},
      {"smiles": "O=c1[nH]cnc2c1ncn2[C@@H]1O[C@H](CO)[C@@H](O)[C@H]1O", "inhibition": "inactive: -0.469%"},
      {"smiles": "CCc1nc2ccccc2n1Cc1ccc(OC)c(OC)c1", "inhibition": "inactive: 4.94%"},
      {"smiles": "O=C1C(=O)N2C(=C1C(=O)N1CCCCCC1)c1ccccc1CC21CCCC1", "inhibition": "inactive: -1.31%"},
      {"smiles": "O=C(CN1C(=O)c2ccccc2C1=O)Nc1cccc([N+](=O)[O-])c1", "inhibition": "inactive: -5.56%"},
      {"smiles": "O=C(O)C[C@@H](O)C(=O)O", "inhibition": "inactive: -9.88%"},
      {"smiles": "CC1(C)CC(CNCCC(c2ccc(F)cc2)c2ccco2)CCO1", "note": "(stereo unspecified)", "inhibition": "inactive: -2.26%"},
      {"smiles": "O=c1ccc2ccccc2o1", "inhibition": "inactive: -5.43%"},
      {"smiles": "CC(=O)Oc1ccc2occ(/C=N/c3cc(=O)[nH]c(=S)[nH]3)c(=O)c2c1", "inhibition": "inactive: -4.77%"},
      {"smiles": "COc1ccc(C(=O)Nc2cccc3cccnc23)cc1OC", "inhibition": "inactive: -4.56%"},
      {"smiles": "CN(C)CCCN1c2ccccc2Sc2ccc(Cl)cc21", "inhibition": "active: 68.5%"},
      {"smiles": "COc1ccc(Cc2noc(CN(C)CC3(N4CCOCC4)CCCCC3)n2)cc1OC", "inhibition": "inactive: -1.7%"},
      {"smiles": "Cc1cccc(-c2ncc(CN3CCN(CC(C)C)C(CCO)C3)cn2)c1", "note": "(stereo unspecified)", "inhibition": "inactive: -4.02%"},
      {"smiles": "COC1CCN(Cc2cn(Cc3ccccc3)nc2-c2cc3ccccc3o2)CC1", "inhibition": "inactive: 3.29%"},
      {"smiles": "COc1ccc(C2C3=C(OC(C)=O)c4ccccc4C3=Nc3c2c(=O)n(C)c(=O)n3C)cc1", "note": "(stereo unspecified)", "inhibition": "inactive: 0.172%"},
      {"smiles": "Cc1ccccc1-c1nn(-c2ccc(F)cc2F)cc1CNCCN(C)C", "inhibition": "inactive: 28.7%"},
      {"smiles": "O=C1NC(=O)C(c2ccccc2)(c2ccccc2)N1", "inhibition": "inactive: -3.63% and inactive: -5.42%"},
      {"smiles": "Cc1ccc2c(c1)C(O)(C1COC(C)(C)CC1=O)C(=O)N2C", "note": "(stereo unspecified)", "inhibition": "inactive: -1%"},
      {"smiles": "O=C1NCC2=C1C(c1ccccc1)Nc1ccccc1N2", "note": "(stereo unspecified)", "inhibition": "inactive: -23.8%"},
      {"smiles": "c1ccc(CNc2ncnc3nc[nH]c23)cc1", "inhibition": "inactive: -12.3%"},
      {"smiles": "Fc1ccc(-c2cc(-c3ccccc3)nc(-n3cccn3)n2)cc1", "inhibition": "inactive: 4.31%"},
      {"smiles": "CC(C)Cc1nc(NCCN2CCOCC2)c(C#N)c2c1COC(C)(C)C2", "inhibition": "inactive: -1.59%"},
      {"smiles": "O=c1nc2cccc3c2=c(/c1=C(\\O)c1ccccc1)c1ccccc1c3=O", "inhibition": "inactive: -39.8%"},
      {"smiles": "CN1CCCC(OC(=O)c2ccc3c(c2)OCCO3)C1", "note": "(stereo unspecified)", "inhibition": "inactive: -6.43%"},
      {"smiles": "Cc1c2c(nc3c(C)cccc13)OC(C)C2", "note": "(stereo unspecified)", "inhibition": "inactive: -9.22%"},
      {"smiles": "COC(=O)c1ccccc1NC(=O)c1ccc(COc2ccc3c(c2)CCC3)cc1", "inhibition": "inactive: -2.33%"},
      {"smiles": "COc1ccccc1OCC(O)COC(N)=O", "note": "(stereo unspecified)", "inhibition": "inactive: 1.94%"},
      {"smiles": "CN(C)C(=O)Oc1ccc[n+](C)c1", "inhibition": "inactive: -8.1%"},
      {"smiles": "CC(=O)CCc1c(C)c2cccc(C)c2[nH]c1=O", "inhibition": "inactive: -2.19%"},
      {"smiles": "COc1cc2c(cc1OC)C(Cc1ccc(O)cc1)N(C)CC2", "note": "(stereo unspecified)", "inhibition": "inactive: 9.02%"},
      {"smiles": "COc1ccc2[nH]c(=O)c(CNC3CCCCC3)cc2c1", "inhibition": "inactive: -12.3%"},
      {"smiles": "O=C(c1ccc(O)cc1)c1ccc(O)cc1O", "inhibition": "inactive: -19.8%"},
      {"smiles": "COc1ccccc1C(=O)c1cc2ccc(O)cc2oc1=O", "inhibition": "inactive: -18%"},
      {"smiles": "Cc1ccc(S(=O)(=O)Oc2ccccc2/C=N/N=C(N)N)cc1", "inhibition": "inactive: 12.8%"},
      {"smiles": "CNc1nc(N(C)C)nc(N(C)C)n1", "inhibition": "inactive: -6.93%"},
      {"smiles": "COc1ccc(C(=O)/C=C/c2cc(C(=O)O)cc3c2OCOC3)c(O)c1", "inhibition": "inactive: -15.9%"},
      {"smiles": "CCc1cc2c(=O)c(-c3ccc(F)cc3)c(C)oc2cc1OCC(=O)O", "inhibition": "inactive: -10.9%"},
      {"smiles": "O=C(O)CP(=O)(O)O", "inhibition": "inactive: 6.02%"},
      {"smiles": "CCOC(=O)Cn1c(C)cc(=O)c2ccccc21", "inhibition": "inactive: 3.5%"},
      {"smiles": "CC(=O)OCC(=O)[C@H]1CC[C@H]2[C@@H]3CCC4=CC(=O)CC[C@]4(C)[C@H]3CC[C@]12C", "inhibition": "inactive: -0.53%"},
      {"smiles": "C#C[C@]1(O)CC[C@H]2[C@@H]3CCC4=CC(=O)CC[C@@H]4[C@H]3CC[C@@]21CC", "inhibition": "inactive: -2.68%"},
      {"smiles": "O=c1[nH]c(Cc2ccccc2)nc2c1oc1ccccc12", "inhibition": "inactive: -1.73%"},
      {"smiles": "COc1cc2nc(-c3ccccc3)nc(N3CCCC3)c2cc1OC", "inhibition": "inactive: 6.11%"},
      {"smiles": "O=C(NO)c1ccccc1O", "inhibition": "inactive: -6.23%"},
      {"smiles": "CC(C)C[C@H]1C(=O)N2CCC[C@H]2[C@]2(O)O[C@](NC(=O)[C@@H]3C=C4c5cccc6[nH]c(Br)c(c56)CC4N(C)C3)(C(C)C)C(=O)N12", "note": "(stereo partly specified)", "inhibition": "inactive: 9.18%"},
      {"smiles": "CC(=O)OCC(=O)[C@@]1(OC(C)=O)[C@@H](C)C[C@H]2[C@@H]3C[C@H](F)C4=CC(=O)C=C[C@]4(C)[C@@]3(F)[C@@H](O)C[C@@]21C", "inhibition": "inactive: 3.77%"},
      {"smiles": "CC(N=C(NC#N)Nc1ccncc1)C(C)(C)C", "note": "(stereo unspecified)", "inhibition": "inactive: -2.86%"},
      {"smiles": "S=C(NCc1ccccc1)NCc1cccc(CNC(=S)NCc2ccccc2)c1", "inhibition": "inactive: 1.07%"},
      {"smiles": "COc1ccc(CN(C)CCc2ccccn2)cc1OC", "inhibition": "inactive: -2.45%"},
      {"smiles": "Oc1[nH]c2ccccc2c1N=Nc1ccccc1", "inhibition": "inactive: -19.7%"},
      {"smiles": "C=CCn1c(N2CCCCCC2)nc2c1c(=O)n(C)c(=O)n2C", "inhibition": "inactive: -1.01%"},
      {"smiles": "COc1ccc(O)c(N)c1", "inhibition": "inactive: -44.6%"},
      {"smiles": "COc1ccc(C(=O)NCc2cccnc2)cc1", "inhibition": "inactive: -9.74%"}
    ]}
  ]
}
